{"source": "PubChem BioAssay AID743454 – Peter MacCallum Cancer Centre, 2014", "test": "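Search for knock-downs that restore vorinostat killing in resistant colon cancer cells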 (primary screen)", "cells": "human HCT116-VR colon cancer cells, selected for vorinostat resistance", "knock-down reagent": "siRNA pool against human genes, 40 nM siRNA pool", "timing": "vorinostat for 24 h, read-out about 72 h after transfection", "challenge": "vorinostat at 2.5 µM final", "read-out": "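Cell viability by CellTiter-Fluor and caspase 3/7 activity by luminescence, each scaled to mock wells per plate, duplicates averaged, then robust z-scored over all plates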", "scale": "viability robust z-score: higher = more viable cells than screen typical; caspase robust z-score: higher = more caspase 3/7 activity than screen typical", "active means": "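a knock-down is a hit when classed RV1 or RV2 for lowered viability, or CA1 or CA2 for caspase activation; those lethal without drug were dropped; hits were retested singly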", "note": "This is an unselected part of about 18,000 reagents. Of all reagents, 450 (2.5%) are marked active. 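Single biological run; no consistent viability z cut-off exists, so the class columns, not z-scores, define the calls.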"}
{"target": "ONECUT1 (one cut homeobox 1)", "viability hit class": "no change", "caspase hit class": "no change", "viability robust z-score": 1.46, "caspase robust z-score": -0.16, "activity call": "inactive"}
{"target": "FOXP2 (forkhead box P2)", "viability hit class": "no change", "caspase hit class": "no change", "viability robust z-score": -0.08, "caspase robust z-score": 1.98, "activity call": "inactive"}
{"target": "OSTC (oligosaccharyltransferase complex non-catalytic subunit)", "viability hit class": "no change", "caspase hit class": "no change", "viability robust z-score": 1, "caspase robust z-score": 0.42, "activity call": "inactive"}
{"target": "GPHRB (golgi pH regulator B)", "viability hit class": "no change", "caspase hit class": "no change", "viability robust z-score": 0.17, "caspase robust z-score": -0.42, "activity call": "inactive"}

Next part; the last 2 above are carried over.
{"target": "OSTC (oligosaccharyltransferase complex non-catalytic subunit)", "viability hit class": "no change", "caspase hit class": "no change", "viability robust z-score": 1, "caspase robust z-score": 0.42, "activity call": "inactive"}
{"target": "GPHRB (golgi pH regulator B)", "viability hit class": "no change", "caspase hit class": "no change", "viability robust z-score": 0.17, "caspase robust z-score": -0.42, "activity call": "inactive"}
{"target": "H3C10 (H3 clustered histone 10)", "viability hit class": "no change", "caspase hit class": "no change", "viability robust z-score": -1.06, "caspase robust z-score": -1.03, "activity call": "inactive"}
{"target": "PXDN (peroxidasin)", "viability hit class": "no change", "caspase hit class": "no change", "viability robust z-score": 0.64, "caspase robust z-score": -0.68, "activity call": "inactive"}
{"target": "CRABP2 (cellular retinoic acid binding protein 2)", "viability hit class": "no change", "caspase hit class": "no change", "viability robust z-score": -0.48, "caspase robust z-score": 0.08, "activity call": "inactive"}
{"target": "SAP130 (Sin3A associated protein 130)", "viability hit class": "no change", "caspase hit class": "CA1 (caspase activation)", "viability robust z-score": -1.17, "caspase robust z-score": 5.57, "activity call": "active"}
{"target": "TANK (TRAF family member associated NFKB activator)", "viability hit class": "no change", "caspase hit class": "no change", "viability robust z-score": 1.38, "caspase robust z-score": 2.48, "activity call": "inactive"}
{"target": "PSMB5 (proteasome 20S subunit beta 5)", "viability hit class": "no change", "caspase hit class": "no change", "viability robust z-score": -5.65, "caspase robust z-score": 3.34, "activity call": "inactive"}
{"target": "GDPD1 (glycerophosphodiester phosphodiesterase domain containing 1)", "viability hit class": "no change", "caspase hit class": "no change", "viability robust z-score": 0.21, "caspase robust z-score": 0.38, "activity call": "inactive"}
{"target": "PIGS (phosphatidylinositol glycan anchor biosynthesis class S)", "viability hit class": "no change", "caspase hit class": "no change", "viability robust z-score": -0.21, "caspase robust z-score": -0.62, "activity call": "inactive"}
